No constants are given. Whether binding was seen depends on the method and setting. In cells and extracts the contact can be indirect. Some entries that bind do so weakly or less than the wild type. One block for each molecule: values may come before it.
Target: BRG1 (human (endogenous in HeLa)) (UniProt P51532)
Experiment: co-IP

Sequences of proteins named here, by UniProt entry; tags and fusion partners are left off.
UniProt P51532: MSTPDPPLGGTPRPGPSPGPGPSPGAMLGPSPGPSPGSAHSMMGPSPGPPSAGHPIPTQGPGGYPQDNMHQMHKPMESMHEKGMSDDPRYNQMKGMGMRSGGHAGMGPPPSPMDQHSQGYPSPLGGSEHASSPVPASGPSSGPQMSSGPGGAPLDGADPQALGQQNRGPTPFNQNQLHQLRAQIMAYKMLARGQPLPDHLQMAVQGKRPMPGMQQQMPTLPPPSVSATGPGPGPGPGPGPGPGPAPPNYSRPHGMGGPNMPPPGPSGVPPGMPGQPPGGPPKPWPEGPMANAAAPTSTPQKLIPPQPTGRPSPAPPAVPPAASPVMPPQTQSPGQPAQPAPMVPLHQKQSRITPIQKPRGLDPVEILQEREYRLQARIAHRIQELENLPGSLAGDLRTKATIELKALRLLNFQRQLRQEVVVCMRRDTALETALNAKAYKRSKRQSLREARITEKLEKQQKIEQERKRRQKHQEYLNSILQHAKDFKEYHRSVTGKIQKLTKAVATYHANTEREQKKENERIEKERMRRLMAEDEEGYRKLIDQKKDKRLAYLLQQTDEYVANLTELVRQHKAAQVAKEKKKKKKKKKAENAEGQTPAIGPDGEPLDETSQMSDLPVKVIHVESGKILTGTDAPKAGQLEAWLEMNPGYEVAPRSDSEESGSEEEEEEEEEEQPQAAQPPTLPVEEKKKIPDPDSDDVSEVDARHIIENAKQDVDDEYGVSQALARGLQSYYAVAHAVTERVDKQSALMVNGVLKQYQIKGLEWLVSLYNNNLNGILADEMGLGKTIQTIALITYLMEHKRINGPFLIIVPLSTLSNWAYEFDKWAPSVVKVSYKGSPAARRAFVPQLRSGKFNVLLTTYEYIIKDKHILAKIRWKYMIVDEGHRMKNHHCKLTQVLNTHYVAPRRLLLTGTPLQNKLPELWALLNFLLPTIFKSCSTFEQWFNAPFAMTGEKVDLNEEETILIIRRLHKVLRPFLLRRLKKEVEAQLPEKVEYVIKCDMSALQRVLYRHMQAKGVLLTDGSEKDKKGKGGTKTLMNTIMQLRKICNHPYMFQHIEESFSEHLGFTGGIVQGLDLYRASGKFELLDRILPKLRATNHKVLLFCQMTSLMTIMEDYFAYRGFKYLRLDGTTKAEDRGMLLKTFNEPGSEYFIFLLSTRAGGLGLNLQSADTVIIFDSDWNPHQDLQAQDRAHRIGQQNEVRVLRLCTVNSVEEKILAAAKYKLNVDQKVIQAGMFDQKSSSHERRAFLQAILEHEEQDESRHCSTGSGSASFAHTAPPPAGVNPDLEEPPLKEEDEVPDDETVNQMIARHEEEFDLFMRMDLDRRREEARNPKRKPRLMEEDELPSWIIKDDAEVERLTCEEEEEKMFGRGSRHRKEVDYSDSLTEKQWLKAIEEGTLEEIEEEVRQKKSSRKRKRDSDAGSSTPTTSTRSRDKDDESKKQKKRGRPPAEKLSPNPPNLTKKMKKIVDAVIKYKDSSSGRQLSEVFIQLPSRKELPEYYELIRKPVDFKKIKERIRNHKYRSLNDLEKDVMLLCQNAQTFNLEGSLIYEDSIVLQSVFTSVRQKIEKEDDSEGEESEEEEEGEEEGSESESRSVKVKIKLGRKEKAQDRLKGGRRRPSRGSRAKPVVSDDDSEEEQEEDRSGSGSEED
UniProt O75533: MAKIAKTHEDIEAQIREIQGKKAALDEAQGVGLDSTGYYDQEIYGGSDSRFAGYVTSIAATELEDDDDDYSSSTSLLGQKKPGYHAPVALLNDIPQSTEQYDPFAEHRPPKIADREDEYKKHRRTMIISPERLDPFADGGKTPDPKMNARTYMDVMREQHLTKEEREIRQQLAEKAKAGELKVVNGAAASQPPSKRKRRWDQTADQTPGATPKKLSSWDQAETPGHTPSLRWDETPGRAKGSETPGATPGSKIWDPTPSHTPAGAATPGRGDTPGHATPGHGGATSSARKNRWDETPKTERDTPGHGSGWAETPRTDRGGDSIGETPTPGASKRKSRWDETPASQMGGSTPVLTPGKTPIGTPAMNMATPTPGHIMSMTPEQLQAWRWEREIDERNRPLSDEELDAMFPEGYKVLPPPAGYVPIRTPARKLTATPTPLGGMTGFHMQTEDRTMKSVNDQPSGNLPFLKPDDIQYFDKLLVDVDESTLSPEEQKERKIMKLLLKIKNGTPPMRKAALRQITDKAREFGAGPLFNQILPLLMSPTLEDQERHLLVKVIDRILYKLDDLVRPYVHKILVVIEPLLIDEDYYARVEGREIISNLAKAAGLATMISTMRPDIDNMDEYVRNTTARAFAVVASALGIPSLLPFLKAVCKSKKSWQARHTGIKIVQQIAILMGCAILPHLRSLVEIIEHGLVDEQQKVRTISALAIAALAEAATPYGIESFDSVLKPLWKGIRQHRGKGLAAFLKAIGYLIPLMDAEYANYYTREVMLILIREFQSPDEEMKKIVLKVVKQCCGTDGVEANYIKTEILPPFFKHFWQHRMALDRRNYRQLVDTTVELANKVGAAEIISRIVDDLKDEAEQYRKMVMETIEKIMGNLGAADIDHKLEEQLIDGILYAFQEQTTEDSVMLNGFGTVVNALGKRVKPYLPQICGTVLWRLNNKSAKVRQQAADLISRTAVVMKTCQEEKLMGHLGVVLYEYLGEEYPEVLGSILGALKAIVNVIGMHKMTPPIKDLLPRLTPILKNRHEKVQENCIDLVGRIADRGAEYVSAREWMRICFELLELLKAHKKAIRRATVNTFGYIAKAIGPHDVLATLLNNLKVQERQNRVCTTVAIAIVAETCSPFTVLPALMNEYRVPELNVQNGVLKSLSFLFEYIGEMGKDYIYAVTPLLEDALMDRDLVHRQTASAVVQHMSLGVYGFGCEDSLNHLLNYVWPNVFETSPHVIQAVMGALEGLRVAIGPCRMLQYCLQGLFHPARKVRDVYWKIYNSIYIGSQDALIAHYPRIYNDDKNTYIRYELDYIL

binding: binds
Molecule: SAP155 (from UniProt O75533 1-1304)

binding: binds
B1: hnRNPL (protein, UniProt P14866 1-589)
chain: MSRRLLPRAEKRRRRLEQRQQPDEQRRRSGAMVKMAAAGGGGGGGRYYGGGSEGGRAPKRLKTDNAGDQHGGGGGGGGGAGAAGGGGGGENYDDPHKTPASPVVHIRGLIDGVVEADLVEALQEFGPISYVVVMPKKRQALVEFEDVLGACNAVNYAADNQIYIAGHPAFVNYSTSQKISRPGDSDDSRSVNSVLLFTILNPIYSITTDVLYTICNPCGPVQRIVIFRKNGVQAMVEFDSVQSAQRAKASLNGADIYSGCCTLKIEYAKPTRLNVFKNDQDTWDYTNPNLSGQGDPGSNPNKRQRQPPLLGDHPAEYGGPHGGYHSHYHDEGYGPPPPHYEGRRMGPPVGGHRRGPSRYGPQYGHPPPPPPPPEYGPHADSPVLMVYGLDQSKMNCDRVFNVFCLYGNVEKVKFMKSKPGAAMVEMADGYAVDRAITHLNNNFMFGQKLNVCVSKQPAIMPGQSYGLEDGSCSYKDFSESRNNRFSTPEQAAKNRIQHPSNVLHFFNAPLEVTEENFFEICDELGVKRPSSVKVFSGKSERSSSGLLEWESKSDALETLGFLNHYQMKNPNGPYPYTLKLCFSTAQHAS

— paper doi:10.1101/858852
